# Reference: the supplement of paper PMC7214452
# Tests used:
# Test in all cases: normalized area under the dose-response curve (viability relative to DMSO control) (fraction); higher = less sensitive (more viable cells)
# Conditions in all cases: exposure time not given
# KMS34 (cancer type: MM) = tested on: KMS34 (cancer type: MM)
# Method: (§1)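 25 myeloma and 15 non-Hodgkin lymphoma cell lines were exposed to each of 76 drugs as 7-point log dilutions (0.01 nM–10 µM) in duplicate. Viability was read with CellTiter-Glo and normalised to DMSO (0.1%) and staurosporine (10 µM) plate controls. Normalised AUC was calculated by the trapezoidal method relative to the negative control. -1 is used as a placeholder for no value.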
# [1] = tested on: OCI-MY5/Vec (cancer type: MM)
# Method: as §1
# [2] = tested on: HuT 78 (cancer type: TCL)
# Method: as §1
# XG2 (cancer type: MM) = tested on: XG2 (cancer type: MM)
# Method: as §1
# [3] = tested on: NCI-H929 (cancer type: MM)
# Method: as §1
# [4] = tested on: JVM2 (cancer type: Mantle)
# Method: as §1
# [5] = tested on: KMS12PE (cancer type: MM)
# Method: as §1
# [6] = tested on: OCI-LY1 (cancer type: DLBCL)
# Method: as §1
# [7] = tested on: OCI-MY7 (cancer type: MM)
# Method: as §1
# Se-Ax (cancer type: TCL) = tested on: Se-Ax (cancer type: TCL)
# Method: as §1
# [8] = tested on: SU-DHL2 (cancer type: DLBCL)
# Method: as §1
# [9] = tested on: OCI-LY3 (cancer type: DLBCL)
# Method: as §1
# [10] = tested on: OCI-MY5/CRBN (cancer type: MM)
# Method: as §1
# [11] = tested on: SU-DHL6 (cancer type: DLBCL)
# Method: as §1
# MM1.S (cancer type: MM) = tested on: MM1.S (cancer type: MM)
# Method: as §1
# [12] = tested on: SU-DHL1 (cancer type: TCL)
# Method: as §1
# MM1.R (cancer type: MM) = tested on: MM1.R (cancer type: MM)
# Method: as §1
# [13] = tested on: OCI-LY19 (cancer type: DLBCL)
# Method: as §1
# LP1 (cancer type: MM) = tested on: LP1 (cancer type: MM)
# Method: as §1
compound,measurement,setting,value
C[C@@H]1C[C@H](N)C[C@H](c2ccncc2NC(=O)c2ccc(F)c(-c3c(F)cccc3F)n2)C1 [Igh447],normalized area under the dose-response curve,KMS34 (cancer type: MM),0.313
same,normalized area under the dose-response curve,[1],0.744
same,normalized area under the dose-response curve,[2],0.707
same,normalized area under the dose-response curve,XG2 (cancer type: MM),0.442
same,normalized area under the dose-response curve,[3],0.54
same,normalized area under the dose-response curve,[4],0.57
same,normalized area under the dose-response curve,[5],0.63
same,normalized area under the dose-response curve,[6],0.771
same,normalized area under the dose-response curve,[7],0.72
same,normalized area under the dose-response curve,Se-Ax (cancer type: TCL),0.559
same,normalized area under the dose-response curve,[8],0.645
same,normalized area under the dose-response curve,[9],0.675
same,normalized area under the dose-response curve,[10],0.866
same,normalized area under the dose-response curve,[11],0.748
same,normalized area under the dose-response curve,MM1.S (cancer type: MM),0.51
same,normalized area under the dose-response curve,[12],0.591
same,normalized area under the dose-response curve,MM1.R (cancer type: MM),0.57
same,normalized area under the dose-response curve,[13],0.716
same,normalized area under the dose-response curve,LP1 (cancer type: MM),0.626
